Source: patent US11723961B2, “Maspin, maspin derivatives, and maspin mimetics for reducing ROS, inflammation, and skin aging” (Northwestern University, priority 2014, dated 2023)

Test: Detection of protein sulfenic acid modifications in vitro (dimedone, Western blot)
Settings: 62.5 ng protein, H2O2 (1 mM) for 1 minute in presence of dimedone (10 mM)
Procedure: Detection of protein sulfenic acid modifications—Detection of protein sulfenic acid in vitro was done as described previously (14,15,27). Briefly, equal amounts (62.5 ng) of thrombin cleaved WT (MpWT) and triple mutated (MpT) recombinant maspin proteins were oxidized with H2O2 (1 mM) for 1 minute in the presence of dimedone (10 mM). The oxidation of cysteine residues was detected by Western blot analysis using an antibody (Millipore; Cat No. 07-2139) that specifically recognizes dimedone derivatized cysteine sulfenic acid residues.

B1: triple mutated maspin: thrombin cleaved triple mutated recombinant maspin protein (C183, C205, C323 to serine) (protein, UniProt P36952 1-375, looked up, variant C183S C205S C323S)
Serpin B5: MDALQLANSAFAVDLFKQLCEKEPLGNVLFSPICLSTSLSLAQVGAKGDTANEIGQVLHFENVKDVPFGFQTVTSDVNKLSSFYSLKLIKRLYVDKSLNLSTEFISSTKRPYAKELETVDFKDKLEETKGQINNSIKDLTDGHFENILADNSVNDQTKILVVNAAYFVGKWMKKFSESETKESPFRVNKTDTKPVQMMNMEATFSMGNIDSINCKIIELPFQNKHLSMFILLPKDVEDESTGLEKIEKQLNSESLSQWTNPSTMANAKVKLSIPKFKVEKMIDPKACLENLGLKHIFSEDTSDFSGMSETKGVALSNVIHKVSLEITEDGGDSIEVPGARILQHKDELNADHPFIYIIRHNKTRNIIFFGKFCSP
- signal with anti-cysteine sulfenic acid antibody (oxidation of cysteine thiol to sulfenic acid): absence of signal

B2: WT maspin: thrombin cleaved WT recombinant maspin protein (protein, UniProt P36952 1-375, looked up)
Serpin B5: MDALQLANSAFAVDLFKQLCEKEPLGNVLFSPICLSTSLSLAQVGAKGDTANEIGQVLHFENVKDVPFGFQTVTSDVNKLSSFYSLKLIKRLYVDKSLNLSTEFISSTKRPYAKELETVDFKDKLEETKGQINNSIKDLTDGHFENILADNSVNDQTKILVVNAAYFVGKWMKKFSESETKECPFRVNKTDTKPVQMMNMEATFCMGNIDSINCKIIELPFQNKHLSMFILLPKDVEDESTGLEKIEKQLNSESLSQWTNPSTMANAKVKLSIPKFKVEKMIDPKACLENLGLKHIFSEDTSDFSGMSETKGVALSNVIHKVCLEITEDGGDSIEVPGARILQHKDELNADHPFIYIIRHNKTRNIIFFGKFCSP
- signal with anti-cysteine sulfenic acid antibody (oxidation of cysteine thiol to sulfenic acid): oxidation of thiol groups to cysteine sulfenic acid
